Binding data for one substance are collected here from article PMC4804311.

By UniProt entry, the sequences of proteins in these tests, tags left out. Residues count along the entry.
UniProt P95493, residues 577-736: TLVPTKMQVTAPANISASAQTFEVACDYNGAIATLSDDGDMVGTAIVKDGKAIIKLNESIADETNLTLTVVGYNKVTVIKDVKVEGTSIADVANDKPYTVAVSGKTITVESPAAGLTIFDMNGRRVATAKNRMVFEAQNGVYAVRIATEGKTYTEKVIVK

For this test, the target named is wild-type recombinant IgSF-CTD tandem of gingipain B (RgpB) (Porphyromonas gingivalis W83) (UniProt P95493). Put plainly: SAXS; SEC fractions diluted to 1.5 mg/mL and a concentration series down to 10% of it, in gel filtration buffer; molecular weight from I(0) and shape reconstructions; both purified. A general note: Size exclusion chromatography separates by hydrodynamic size, large species first.

These are yes or no findings as the source states them, for the method shown.

As for “wild-type recombinant IgSF-CTD tandem of gingipain B (RgpB) (from UniProt P95493 577-736) (domain or fragment)”, the binding result is given as “no binding (tested: 1.5 mg/mL)”.
